Test results: the supplement of paper PMC12823440, “Inhibitors supercharge kinase turnover through native proteolytic circuits” (Nature, 2025)
Counter-ions that a name gives are not always drawn. Some of the results follow. Hit calls seldom repeat between salt and free forms of one compound.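 Kinases, fused to nanoluciferase, were expressed in K562 cells; luminescence was measured every 4 h from 2 to 18 h as percent of control (DMSO = 100%, positive control = 0%). A time point is decreased if signal falls significantly (2 sigma). Hits were called by the authors by a rule that is not shown; the count of time points alone does not decide it.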

Amino acid sequences for entries named in this document (tags omitted). A change or cut given only in a name is not applied to a line headed by its entry.
UniProt P31152, whole entry: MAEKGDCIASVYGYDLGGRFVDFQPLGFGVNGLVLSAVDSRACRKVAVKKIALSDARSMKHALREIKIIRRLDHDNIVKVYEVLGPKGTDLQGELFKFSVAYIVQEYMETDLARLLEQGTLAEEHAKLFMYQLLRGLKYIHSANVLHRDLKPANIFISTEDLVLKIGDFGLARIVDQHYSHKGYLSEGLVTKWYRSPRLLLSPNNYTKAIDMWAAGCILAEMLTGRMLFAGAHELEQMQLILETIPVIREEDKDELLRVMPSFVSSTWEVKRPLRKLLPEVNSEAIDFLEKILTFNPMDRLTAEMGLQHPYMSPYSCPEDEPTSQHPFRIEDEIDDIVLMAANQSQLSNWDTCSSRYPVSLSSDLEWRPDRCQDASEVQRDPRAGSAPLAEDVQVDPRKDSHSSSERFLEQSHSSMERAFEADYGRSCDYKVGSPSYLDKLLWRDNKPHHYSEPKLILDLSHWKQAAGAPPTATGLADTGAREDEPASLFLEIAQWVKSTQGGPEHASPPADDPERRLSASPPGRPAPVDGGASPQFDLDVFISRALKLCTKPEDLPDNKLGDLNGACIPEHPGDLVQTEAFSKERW
UniProt Q9BUB5: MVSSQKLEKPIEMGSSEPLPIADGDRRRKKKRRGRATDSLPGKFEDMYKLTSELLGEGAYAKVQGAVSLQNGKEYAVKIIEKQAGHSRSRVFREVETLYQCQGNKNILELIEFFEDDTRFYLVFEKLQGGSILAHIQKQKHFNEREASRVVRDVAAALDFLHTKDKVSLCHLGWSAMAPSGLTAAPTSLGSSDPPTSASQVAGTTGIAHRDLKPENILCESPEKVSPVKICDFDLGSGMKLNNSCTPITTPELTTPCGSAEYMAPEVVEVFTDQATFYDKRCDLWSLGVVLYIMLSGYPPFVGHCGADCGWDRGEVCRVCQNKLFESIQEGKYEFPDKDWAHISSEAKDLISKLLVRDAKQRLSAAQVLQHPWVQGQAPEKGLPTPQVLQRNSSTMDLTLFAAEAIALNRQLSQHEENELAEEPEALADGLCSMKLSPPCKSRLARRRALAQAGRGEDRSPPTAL
UniProt O96013: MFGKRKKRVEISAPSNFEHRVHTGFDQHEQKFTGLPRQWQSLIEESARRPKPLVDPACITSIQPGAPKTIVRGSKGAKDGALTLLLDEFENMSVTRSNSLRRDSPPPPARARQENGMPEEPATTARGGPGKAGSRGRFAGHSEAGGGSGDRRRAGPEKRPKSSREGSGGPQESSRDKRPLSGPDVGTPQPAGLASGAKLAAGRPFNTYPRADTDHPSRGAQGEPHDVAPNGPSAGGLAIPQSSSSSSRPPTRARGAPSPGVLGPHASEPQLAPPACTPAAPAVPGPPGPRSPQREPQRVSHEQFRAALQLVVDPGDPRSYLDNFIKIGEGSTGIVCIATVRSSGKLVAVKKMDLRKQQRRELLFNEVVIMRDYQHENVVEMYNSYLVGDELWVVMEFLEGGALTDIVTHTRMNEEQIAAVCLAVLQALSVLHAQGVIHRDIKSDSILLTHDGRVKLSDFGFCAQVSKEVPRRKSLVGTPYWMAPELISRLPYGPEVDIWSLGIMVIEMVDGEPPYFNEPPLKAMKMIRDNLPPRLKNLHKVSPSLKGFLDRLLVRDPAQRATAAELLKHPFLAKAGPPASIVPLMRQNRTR
UniProt Q96KB5: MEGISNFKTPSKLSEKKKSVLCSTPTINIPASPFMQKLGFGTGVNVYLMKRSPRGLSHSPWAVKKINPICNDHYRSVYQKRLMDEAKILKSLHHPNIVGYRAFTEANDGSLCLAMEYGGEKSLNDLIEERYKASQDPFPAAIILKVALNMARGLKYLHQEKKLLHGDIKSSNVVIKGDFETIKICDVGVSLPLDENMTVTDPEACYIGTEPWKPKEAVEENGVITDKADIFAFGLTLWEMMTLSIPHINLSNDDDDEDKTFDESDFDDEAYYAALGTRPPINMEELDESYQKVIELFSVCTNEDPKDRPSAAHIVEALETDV
UniProt P42356, whole entry, looked up: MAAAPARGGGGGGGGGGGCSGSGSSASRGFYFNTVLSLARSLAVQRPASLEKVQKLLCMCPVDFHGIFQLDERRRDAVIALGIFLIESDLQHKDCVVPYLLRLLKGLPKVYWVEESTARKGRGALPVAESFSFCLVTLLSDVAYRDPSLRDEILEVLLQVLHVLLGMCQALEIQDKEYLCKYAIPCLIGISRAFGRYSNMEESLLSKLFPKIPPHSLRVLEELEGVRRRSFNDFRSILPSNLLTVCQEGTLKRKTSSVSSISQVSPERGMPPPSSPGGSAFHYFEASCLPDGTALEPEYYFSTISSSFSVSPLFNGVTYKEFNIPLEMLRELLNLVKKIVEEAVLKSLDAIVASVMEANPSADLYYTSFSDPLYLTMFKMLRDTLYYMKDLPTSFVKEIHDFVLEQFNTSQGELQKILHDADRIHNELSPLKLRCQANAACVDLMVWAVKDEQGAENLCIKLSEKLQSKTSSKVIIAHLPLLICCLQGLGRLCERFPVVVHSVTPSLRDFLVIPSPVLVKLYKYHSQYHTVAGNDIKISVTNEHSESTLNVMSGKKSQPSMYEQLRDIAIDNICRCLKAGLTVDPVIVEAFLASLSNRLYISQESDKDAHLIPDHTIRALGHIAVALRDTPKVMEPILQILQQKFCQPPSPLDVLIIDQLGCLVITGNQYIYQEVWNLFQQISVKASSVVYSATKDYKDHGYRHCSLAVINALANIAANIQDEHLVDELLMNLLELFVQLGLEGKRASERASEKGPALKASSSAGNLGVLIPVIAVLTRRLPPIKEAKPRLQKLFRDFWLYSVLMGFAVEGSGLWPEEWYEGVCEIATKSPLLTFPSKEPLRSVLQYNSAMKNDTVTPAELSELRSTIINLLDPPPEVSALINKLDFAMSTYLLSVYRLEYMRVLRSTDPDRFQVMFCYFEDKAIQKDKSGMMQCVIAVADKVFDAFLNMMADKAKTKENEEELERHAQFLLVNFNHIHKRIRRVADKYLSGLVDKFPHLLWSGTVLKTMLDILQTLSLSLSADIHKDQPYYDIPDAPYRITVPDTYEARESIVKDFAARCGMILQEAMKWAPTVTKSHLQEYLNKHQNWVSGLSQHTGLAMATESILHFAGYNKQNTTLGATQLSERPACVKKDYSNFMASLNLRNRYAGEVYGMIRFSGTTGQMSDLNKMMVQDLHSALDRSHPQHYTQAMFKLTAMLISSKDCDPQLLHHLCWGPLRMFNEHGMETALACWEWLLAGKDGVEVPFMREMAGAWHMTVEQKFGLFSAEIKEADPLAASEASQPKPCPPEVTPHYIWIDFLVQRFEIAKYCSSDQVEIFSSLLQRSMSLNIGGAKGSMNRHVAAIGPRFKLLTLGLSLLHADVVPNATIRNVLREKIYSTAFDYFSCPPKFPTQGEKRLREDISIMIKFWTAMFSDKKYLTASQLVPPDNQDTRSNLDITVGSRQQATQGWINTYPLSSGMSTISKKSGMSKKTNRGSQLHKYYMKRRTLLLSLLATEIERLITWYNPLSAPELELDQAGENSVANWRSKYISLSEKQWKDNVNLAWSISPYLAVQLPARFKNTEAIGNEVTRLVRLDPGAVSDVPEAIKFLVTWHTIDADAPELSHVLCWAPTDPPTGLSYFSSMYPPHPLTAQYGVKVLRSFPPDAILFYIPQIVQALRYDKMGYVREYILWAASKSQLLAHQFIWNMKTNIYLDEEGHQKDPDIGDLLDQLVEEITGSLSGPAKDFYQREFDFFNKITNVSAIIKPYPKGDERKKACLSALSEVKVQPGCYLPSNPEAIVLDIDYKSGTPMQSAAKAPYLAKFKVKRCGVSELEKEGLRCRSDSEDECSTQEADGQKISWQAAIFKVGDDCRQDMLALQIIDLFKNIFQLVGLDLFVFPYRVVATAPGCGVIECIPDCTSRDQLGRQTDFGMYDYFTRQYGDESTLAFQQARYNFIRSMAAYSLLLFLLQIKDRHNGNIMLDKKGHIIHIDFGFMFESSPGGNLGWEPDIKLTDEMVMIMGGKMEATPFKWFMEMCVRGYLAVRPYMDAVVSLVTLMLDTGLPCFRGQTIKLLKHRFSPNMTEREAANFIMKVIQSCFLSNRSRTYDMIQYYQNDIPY
UniProt P53350, whole entry: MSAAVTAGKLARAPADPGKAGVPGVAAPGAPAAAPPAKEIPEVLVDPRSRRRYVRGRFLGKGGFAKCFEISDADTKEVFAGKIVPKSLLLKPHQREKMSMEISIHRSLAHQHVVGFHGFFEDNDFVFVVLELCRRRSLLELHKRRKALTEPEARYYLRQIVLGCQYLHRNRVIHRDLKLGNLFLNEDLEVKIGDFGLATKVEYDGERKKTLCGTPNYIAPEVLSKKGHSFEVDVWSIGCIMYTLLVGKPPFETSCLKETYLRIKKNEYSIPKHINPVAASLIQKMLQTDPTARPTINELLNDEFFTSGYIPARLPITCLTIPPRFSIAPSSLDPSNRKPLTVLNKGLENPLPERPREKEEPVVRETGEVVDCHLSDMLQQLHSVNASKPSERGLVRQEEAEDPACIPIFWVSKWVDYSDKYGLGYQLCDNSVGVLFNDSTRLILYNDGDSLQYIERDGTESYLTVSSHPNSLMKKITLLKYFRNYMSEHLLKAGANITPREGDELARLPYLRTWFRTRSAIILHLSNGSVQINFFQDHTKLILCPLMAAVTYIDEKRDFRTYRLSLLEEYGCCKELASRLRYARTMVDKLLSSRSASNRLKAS
UniProt Q13131: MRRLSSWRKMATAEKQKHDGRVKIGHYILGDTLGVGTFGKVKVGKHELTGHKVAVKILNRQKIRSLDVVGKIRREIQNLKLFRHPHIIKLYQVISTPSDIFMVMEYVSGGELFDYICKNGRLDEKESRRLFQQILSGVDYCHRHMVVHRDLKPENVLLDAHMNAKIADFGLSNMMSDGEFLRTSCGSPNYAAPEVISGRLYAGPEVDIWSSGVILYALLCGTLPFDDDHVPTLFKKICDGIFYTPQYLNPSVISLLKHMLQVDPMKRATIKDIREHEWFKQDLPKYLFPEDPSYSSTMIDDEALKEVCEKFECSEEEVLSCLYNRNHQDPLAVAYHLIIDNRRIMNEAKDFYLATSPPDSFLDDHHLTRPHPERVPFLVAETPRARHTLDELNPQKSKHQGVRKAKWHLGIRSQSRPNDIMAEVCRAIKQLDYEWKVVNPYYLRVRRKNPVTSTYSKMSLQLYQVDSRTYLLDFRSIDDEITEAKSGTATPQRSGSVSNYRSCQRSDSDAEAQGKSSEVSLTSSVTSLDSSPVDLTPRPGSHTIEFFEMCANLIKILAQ
UniProt Q05397, whole entry, looked up: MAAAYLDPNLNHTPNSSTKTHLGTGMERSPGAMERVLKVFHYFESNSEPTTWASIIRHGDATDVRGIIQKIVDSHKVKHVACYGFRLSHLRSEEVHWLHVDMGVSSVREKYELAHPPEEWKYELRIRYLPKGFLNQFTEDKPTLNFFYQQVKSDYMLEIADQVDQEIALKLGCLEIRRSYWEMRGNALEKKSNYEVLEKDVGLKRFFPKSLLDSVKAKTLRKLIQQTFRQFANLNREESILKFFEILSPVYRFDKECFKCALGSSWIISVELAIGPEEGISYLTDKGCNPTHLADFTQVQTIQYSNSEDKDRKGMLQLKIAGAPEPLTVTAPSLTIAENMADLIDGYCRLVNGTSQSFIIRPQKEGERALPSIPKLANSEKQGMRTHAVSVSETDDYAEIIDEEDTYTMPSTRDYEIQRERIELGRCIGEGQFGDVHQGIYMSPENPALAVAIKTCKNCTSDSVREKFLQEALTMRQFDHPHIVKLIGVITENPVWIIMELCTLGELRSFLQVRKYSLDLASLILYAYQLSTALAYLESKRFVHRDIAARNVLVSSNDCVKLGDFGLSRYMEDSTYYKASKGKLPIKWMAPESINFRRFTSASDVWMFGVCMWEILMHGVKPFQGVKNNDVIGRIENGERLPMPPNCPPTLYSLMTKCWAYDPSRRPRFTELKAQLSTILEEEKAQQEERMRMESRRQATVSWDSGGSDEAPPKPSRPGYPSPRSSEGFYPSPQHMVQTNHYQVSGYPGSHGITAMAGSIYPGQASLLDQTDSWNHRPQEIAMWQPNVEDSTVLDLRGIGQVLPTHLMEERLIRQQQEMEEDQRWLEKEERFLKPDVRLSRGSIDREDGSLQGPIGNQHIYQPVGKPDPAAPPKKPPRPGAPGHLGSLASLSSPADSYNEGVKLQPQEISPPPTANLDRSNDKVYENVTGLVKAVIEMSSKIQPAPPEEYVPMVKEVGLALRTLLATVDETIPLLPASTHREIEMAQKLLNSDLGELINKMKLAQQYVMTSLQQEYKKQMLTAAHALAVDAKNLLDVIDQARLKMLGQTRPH

Columns and labels:
Test in all cases: kinase-Nluc reporter destabilization hit call (1 = scored as downregulated) (binary); higher = compound decreases kinase abundance
Settings in all cases: K562; 2-18 h
[1] = molecular target: MAPK1 (UniProt P28482)
[2] = molecular target: MAPK4 (UniProt P31152)
[3] = molecular target: MAPKAPK2 (UniProt P49137)
[4] = molecular target: MKNK1 (UniProt Q9BUB5)
[5] = molecular target: NTRK2 (UniProt Q16620)
[6] = molecular target: NTRK3 (UniProt Q16288)
[7] = molecular target: PAK4 (UniProt O96013)
[8] = molecular target: PBK (UniProt Q96KB5)
[9] = molecular target: PDGFRB (UniProt P09619)
[10] = molecular target: PDK1 (UniProt Q15118)
[11] = molecular target: PDPK1 (UniProt O15530)
[12] = molecular target: PIK4CA (UniProt P42356)
[13] = molecular target: PIK4CB (UniProt Q9UBF8)
[14] = molecular target: PLK1 (UniProt P53350)
[15] = molecular target: PRKAA1 (UniProt Q13131)
[16] = molecular target: PRKCA (UniProt P17252)
[17] = molecular target: PTK2 (UniProt Q05397)
[18] = molecular target: RAF1 (UniProt P04049)
[19] = molecular target: RAF1_S257L (clone: RAF1_mut) (UniProt P04049)
[20] = molecular target: PTK2B (UniProt Q14289)

| Compound | kinase-Nluc reporter destabilization hit call [1] | kinase-Nluc reporter destabilization hit call [2] | kinase-Nluc reporter destabilization hit call [3] | kinase-Nluc reporter destabilization hit call [4] | kinase-Nluc reporter destabilization hit call [5] | kinase-Nluc reporter destabilization hit call [6] | kinase-Nluc reporter destabilization hit call [7] | kinase-Nluc reporter destabilization hit call [8] | kinase-Nluc reporter destabilization hit call [9] | kinase-Nluc reporter destabilization hit call [10] | kinase-Nluc reporter destabilization hit call [11] | kinase-Nluc reporter destabilization hit call [12] | kinase-Nluc reporter destabilization hit call [13] | kinase-Nluc reporter destabilization hit call [14] | kinase-Nluc reporter destabilization hit call [15] | kinase-Nluc reporter destabilization hit call [16] | kinase-Nluc reporter destabilization hit call [17] | kinase-Nluc reporter destabilization hit call [18] | kinase-Nluc reporter destabilization hit call [19] | kinase-Nluc reporter destabilization hit call [20] |
| --- | --- | --- | --- | --- | --- | --- | --- | --- | --- | --- | --- | --- | --- | --- | --- | --- | --- | --- | --- | --- |
| COc1nccc(-c2c(-c3ccc(F)cc3)ncn2C2CCC(O)CC2)n1 (stereo not given) (10 µM) | inactive: 0 | inactive: 0 | inactive: 0 | inactive: 0 | inactive: 0 | inactive: 0 | inactive: 0 | inactive: 0 | inactive: 0 | inactive: 0 | inactive: 0 | inactive: 0 | inactive: 0 | inactive: 0 | inactive: 0 | inactive: 0 | inactive: 0 | inactive: 0 | inactive: 0 |  |
| O=C1NCCc2[nH]c(-c3ccnc(-c4cnc5ccccc5c4)c3)cc21 (10 µM) | inactive: 0 | inactive: 0 |  | inactive: 0 | inactive: 0 | inactive: 0 | inactive: 0 | inactive: 0 | inactive: 0 | inactive: 0 | inactive: 0 | inactive: 0 | inactive: 0 | inactive: 0 | inactive: 0 | inactive: 0 | inactive: 0 | inactive: 0 | inactive: 0 | inactive: 0 |
| O=c1oc2ccccc2c(O)c1Cc1c(O)c2ccccc2oc1=O [Dicoumarol] (10 µM) |  | inactive: 0 | inactive: 0 | inactive: 0 | inactive: 0 | inactive: 0 | inactive: 0 | inactive: 0 | inactive: 0 | inactive: 0 | inactive: 0 | inactive: 0 | inactive: 0 | inactive: 0 | inactive: 0 | inactive: 0 | inactive: 0 | inactive: 0 | inactive: 0 | inactive: 0 |
| COc1cc(C(=O)NC2CCN(C)CC2)c(F)cc1Nc1ncc2c(n1)N(C1CCCC1)CC(F)(F)C(=O)N2C [TAK-960 (dihydrochloride)] (2.5 µM) | inactive: 0 | inactive: 0 | inactive: 0 | inactive: 0 | inactive: 0 | inactive: 0 | inactive: 0 | inactive: 0 | inactive: 0 | inactive: 0 | inactive: 0 | inactive: 0 | inactive: 0 |  | inactive: 0 | inactive: 0 | inactive: 0 | inactive: 0 | inactive: 0 | inactive: 0 |
| O=C([O-])c1ccccc1O.[Na+] [Sodium Salicylate] (10 µM) | inactive: 0 | inactive: 0 | inactive: 0 | inactive: 0 | inactive: 0 | inactive: 0 | inactive: 0 | inactive: 0 | inactive: 0 | inactive: 0 | inactive: 0 | inactive: 0 | inactive: 0 | inactive: 0 | inactive: 0 | inactive: 0 | inactive: 0 | inactive: 0 | inactive: 0 | inactive: 0 |
| CNc1nc(-c2ccc3c(N)n[nH]c3c2)cc(N2C[C@@H](C(=O)NC3CCCCC3)CC[C@H]2C)n1 (10 µM) | inactive: 0 | inactive: 0 | inactive: 0 | inactive: 0 | inactive: 0 | inactive: 0 | inactive: 0 | inactive: 0 | inactive: 0 | inactive: 0 | inactive: 0 | inactive: 0 | active: 1 | inactive: 0 | inactive: 0 | inactive: 0 | inactive: 0 | inactive: 0 | inactive: 0 | inactive: 0 |
| CC(=O)NCC(=O)N1[C@@H]2CC[C@H]1c1ccc(Nc3ncc(C(F)(F)F)c(NC4CCC4)n3)cc12 (2.5 µM) | inactive: 0 | inactive: 0 | inactive: 0 | inactive: 0 | inactive: 0 | inactive: 0 | inactive: 0 | inactive: 0 |  | inactive: 0 | inactive: 0 | inactive: 0 | inactive: 0 | inactive: 0 | inactive: 0 | inactive: 0 | inactive: 0 | inactive: 0 | inactive: 0 | inactive: 0 |
| Cc1cc(N2CCOCC2)cc2[nH]c(-c3c(NC[C@@H](O)c4cccc(Cl)c4)cc[nH]c3=O)nc12 (10 µM) | inactive: 0 | inactive: 0 | inactive: 0 | inactive: 0 | inactive: 0 | inactive: 0 | inactive: 0 | inactive: 0 | inactive: 0 | inactive: 0 | inactive: 0 | inactive: 0 | inactive: 0 | inactive: 0 | inactive: 0 | inactive: 0 |  | inactive: 0 | inactive: 0 | inactive: 0 |
| C[C@]1(O)C[C@@H](c2nc(-c3ccc4ccc(-c5ccccc5)nc4c3)c3c(N)nccn32)C1 [Linsitinib] (2.5 µM) | inactive: 0 | inactive: 0 | inactive: 0 | inactive: 0 | inactive: 0 | inactive: 0 | inactive: 0 | inactive: 0 | inactive: 0 | inactive: 0 | inactive: 0 | inactive: 0 | inactive: 0 | inactive: 0 | inactive: 0 | inactive: 0 | inactive: 0 | inactive: 0 | inactive: 0 | inactive: 0 |
| N#C/C(=C\c1ccc(O)c(O)c1)C(=O)NCCCc1ccccc1 (10 µM) | inactive: 0 | inactive: 0 | inactive: 0 | inactive: 0 | inactive: 0 | inactive: 0 | inactive: 0 | inactive: 0 | inactive: 0 | inactive: 0 | inactive: 0 | inactive: 0 | inactive: 0 | inactive: 0 | inactive: 0 | inactive: 0 | inactive: 0 | inactive: 0 | active: 1 | inactive: 0 |
| Cc1cc(C)c(/C=C2\C(=O)Nc3ccccc32)[nH]1 [Semaxinib] (10 µM) | inactive: 0 | inactive: 0 | inactive: 0 | inactive: 0 | inactive: 0 | inactive: 0 | inactive: 0 | inactive: 0 |  | inactive: 0 | inactive: 0 | inactive: 0 | inactive: 0 | inactive: 0 | inactive: 0 | inactive: 0 | inactive: 0 | inactive: 0 | inactive: 0 |  |
| COc1c(CC=C(C)C)c(O)cc2oc(=O)c(-c3ccc(O)cc3O)cc12 [Glycycoumarin] (10 µM) | inactive: 0 | inactive: 0 | inactive: 0 | inactive: 0 | inactive: 0 | inactive: 0 | inactive: 0 | inactive: 0 | inactive: 0 | inactive: 0 | inactive: 0 | inactive: 0 | inactive: 0 | inactive: 0 | inactive: 0 | inactive: 0 | inactive: 0 | inactive: 0 | inactive: 0 | inactive: 0 |
| CCN(CCCOc1ccc2c(Nc3cc(CC(=O)Nc4cccc(F)c4)[nH]n3)ncnc2c1)CCOP(=O)(O)O [Barasertib] (10 µM) | inactive: 0 | inactive: 0 | inactive: 0 | inactive: 0 | inactive: 0 | inactive: 0 | inactive: 0 | inactive: 0 |  | inactive: 0 | inactive: 0 | inactive: 0 | inactive: 0 | inactive: 0 | inactive: 0 | inactive: 0 | inactive: 0 | inactive: 0 | inactive: 0 | inactive: 0 |
| Cn1c(=O)c(Oc2ccc(F)cc2F)cc2cnc(NC3CCOCC3)nc21 [R1487 (Hydrochloride)] (10 µM) | inactive: 0 | inactive: 0 | inactive: 0 | inactive: 0 | inactive: 0 | inactive: 0 | inactive: 0 | inactive: 0 | inactive: 0 | inactive: 0 | inactive: 0 | inactive: 0 | inactive: 0 | inactive: 0 | inactive: 0 | inactive: 0 | inactive: 0 | inactive: 0 | inactive: 0 |  |
| COc1ccc(NC(=O)N2CCN(c3nc(N)nc4c3cnn4C)[C@@H](C)C2)c(C)c1 (10 µM) | inactive: 0 | inactive: 0 | inactive: 0 | inactive: 0 | inactive: 0 | inactive: 0 | inactive: 0 | inactive: 0 | inactive: 0 | inactive: 0 | inactive: 0 | inactive: 0 |  | inactive: 0 | inactive: 0 | inactive: 0 | inactive: 0 | inactive: 0 | inactive: 0 | inactive: 0 |
| Cc1cccc([C@@H](CO)NC(=O)[C@@H](C)N2Cc3ccc(-c4nc(NC5CCOCC5)ncc4Cl)cc3C2=O)c1 [ERK1/2 inhibitor 1] (10 µM) |  | inactive: 0 | inactive: 0 | inactive: 0 | inactive: 0 | inactive: 0 | inactive: 0 | inactive: 0 | inactive: 0 | inactive: 0 | inactive: 0 | inactive: 0 | inactive: 0 | inactive: 0 | inactive: 0 | inactive: 0 | inactive: 0 | inactive: 0 | inactive: 0 | inactive: 0 |
| Cc1[nH]c(/C=C2\C(=O)Nc3ccc(S(=O)(=O)Cc4c(Cl)cccc4Cl)cc32)c(C)c1C(=O)N1CCC[C@@H]1CN1CCCC1 (2.5 µM) | inactive: 0 | inactive: 0 | inactive: 0 | inactive: 0 | inactive: 0 |  | inactive: 0 | inactive: 0 | inactive: 0 | inactive: 0 | inactive: 0 | inactive: 0 | inactive: 0 | inactive: 0 | inactive: 0 | inactive: 0 | inactive: 0 | inactive: 0 | inactive: 0 | inactive: 0 |
| CC(C)(C)c1nc2c3cc[nH]c(=O)c3c3cc(F)ccc3c2[nH]1 [Pyridone 6] (10 µM) | inactive: 0 | inactive: 0 | inactive: 0 | inactive: 0 | inactive: 0 | inactive: 0 | inactive: 0 | inactive: 0 |  | inactive: 0 | inactive: 0 | inactive: 0 | inactive: 0 | inactive: 0 | inactive: 0 | inactive: 0 | inactive: 0 | inactive: 0 | inactive: 0 | inactive: 0 |
| c1cc(OCCN2CCCCC2)cc(-c2n[nH]c3ccc(-c4nnc[nH]4)cc23)c1 [CC-401 (hydrochloride)] (10 µM) | inactive: 0 | inactive: 0 | inactive: 0 | inactive: 0 |  | inactive: 0 | inactive: 0 | inactive: 0 | inactive: 0 | inactive: 0 | inactive: 0 | inactive: 0 | inactive: 0 | inactive: 0 | inactive: 0 | inactive: 0 | inactive: 0 | inactive: 0 | inactive: 0 | inactive: 0 |

Two successive entries out of the list so far:

| Compound | kinase-Nluc reporter destabilization hit call [1] | kinase-Nluc reporter destabilization hit call [2] | kinase-Nluc reporter destabilization hit call [3] | kinase-Nluc reporter destabilization hit call [4] | kinase-Nluc reporter destabilization hit call [5] | kinase-Nluc reporter destabilization hit call [6] | kinase-Nluc reporter destabilization hit call [7] | kinase-Nluc reporter destabilization hit call [8] | kinase-Nluc reporter destabilization hit call [9] | kinase-Nluc reporter destabilization hit call [10] | kinase-Nluc reporter destabilization hit call [11] | kinase-Nluc reporter destabilization hit call [12] | kinase-Nluc reporter destabilization hit call [13] | kinase-Nluc reporter destabilization hit call [14] | kinase-Nluc reporter destabilization hit call [15] | kinase-Nluc reporter destabilization hit call [16] | kinase-Nluc reporter destabilization hit call [17] | kinase-Nluc reporter destabilization hit call [18] | kinase-Nluc reporter destabilization hit call [19] | kinase-Nluc reporter destabilization hit call [20] |
| --- | --- | --- | --- | --- | --- | --- | --- | --- | --- | --- | --- | --- | --- | --- | --- | --- | --- | --- | --- | --- |
| Cn1c(=O)c(Oc2ccc(F)cc2F)cc2cnc(NC3CCOCC3)nc21 [R1487 (Hydrochloride)] (10 µM) | inactive: 0 | inactive: 0 | inactive: 0 | inactive: 0 | inactive: 0 | inactive: 0 | inactive: 0 | inactive: 0 | inactive: 0 | inactive: 0 | inactive: 0 | inactive: 0 | inactive: 0 | inactive: 0 | inactive: 0 | inactive: 0 | inactive: 0 | inactive: 0 | inactive: 0 |  |
| COc1ccc(NC(=O)N2CCN(c3nc(N)nc4c3cnn4C)[C@@H](C)C2)c(C)c1 (10 µM) | inactive: 0 | inactive: 0 | inactive: 0 | inactive: 0 | inactive: 0 | inactive: 0 | inactive: 0 | inactive: 0 | inactive: 0 | inactive: 0 | inactive: 0 | inactive: 0 |  | inactive: 0 | inactive: 0 | inactive: 0 | inactive: 0 | inactive: 0 | inactive: 0 | inactive: 0 |
